The text below walks through data of PMC8615271.

By UniProt entry, the sequences of proteins in these tests, tags left out. Residues count along the entry.
UniProt P02769, residues 25-607: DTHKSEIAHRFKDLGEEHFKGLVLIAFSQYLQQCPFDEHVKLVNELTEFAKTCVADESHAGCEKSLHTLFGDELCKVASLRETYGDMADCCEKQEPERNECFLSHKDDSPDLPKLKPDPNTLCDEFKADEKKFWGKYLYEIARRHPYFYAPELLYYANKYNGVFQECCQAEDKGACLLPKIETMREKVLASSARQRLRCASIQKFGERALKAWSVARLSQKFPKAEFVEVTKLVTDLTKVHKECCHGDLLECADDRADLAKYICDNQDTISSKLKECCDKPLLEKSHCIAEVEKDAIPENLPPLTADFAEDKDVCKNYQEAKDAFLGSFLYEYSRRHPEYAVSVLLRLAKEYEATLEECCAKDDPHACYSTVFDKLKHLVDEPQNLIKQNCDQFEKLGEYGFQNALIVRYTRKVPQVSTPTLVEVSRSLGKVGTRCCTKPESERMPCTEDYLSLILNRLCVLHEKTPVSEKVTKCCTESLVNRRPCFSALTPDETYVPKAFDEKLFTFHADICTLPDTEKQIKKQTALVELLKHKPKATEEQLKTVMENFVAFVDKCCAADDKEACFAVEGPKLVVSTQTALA

For this test, the target named is bovine serum albumin (bovine) (UniProt P02769). The test is described as follows: far-Western, overlay or dot blot; reduced purified prey proteins (from 40 µM stocks, 3 µL) dotted on nitrocellulose; blocked with 5% skim milk in TBST; incubated with 0.2 µM reduced P5 in 20 mM Tris-HCl pH 7.6, 150 mM NaCl, 0.05% Tween 20 at 4 °C for 3 h; bound P5 detected with anti-P5 antiserum; both purified.

Results are given in words; binding and its absence hold for the method and conditions named.

B1: P5 (reduced form) (enzyme, UniProt Q15084 20-440)
chain: LYSSSDDVIELTPSNFNREVIQSDSLWLVEFYAPWCGHCQRLTPEWKKAATALKDVVKVGAVDADKHHSLGGQYGVQGFPTIKIFGSNKNRPEDYQGGRTGEAIVDAALSALRQLVKDRLGGRSGGYSSGKQGRSDSSSKKDVIELTDDSFDKNVLDSEDVWMVEFYAPWCGHCKNLEPEWAAAASEVKEQTKGKVKLAAVDATVNQVLASRYGIRGFPTIKIFQKGESPVDYDGGRTRSDIVSRALDLFSDNAPPPELLEIINEDIAKRTCEEHQLCVVAVLPHILDTGAAGRNSYLEVLLKLADKYKKKMWGWLWTEAGAQSELETALGIGGFGYPAMAAINARKMKFALLKGSFSEQGINEFLRELSFGRGSTAPVGGGAFPTIVEREPWDGRDGELPVEDDIDLSDVELDDLGKDEL
For the molecule B1, the binding result is “no binding (tested: 0.2 μM)”.
